This assay addresses Focal adhesion kinase (human (endogenous in HASMCs)) (UniProt Q05397). Put plainly: co-IP; HASMC lysate incubated with primary antibody (1:100) overnight at 4 °C, Protein G Sepharose beads 1 h, washed 3 times with lysis buffer, SDS-PAGE and Western blot; which antibody precipitated is not stated.

Sequences of proteins named here, by UniProt entry; tags and fusion partners are left off. A change or cut given only in a name is not applied to a line headed by its entry.
UniProt Q05397: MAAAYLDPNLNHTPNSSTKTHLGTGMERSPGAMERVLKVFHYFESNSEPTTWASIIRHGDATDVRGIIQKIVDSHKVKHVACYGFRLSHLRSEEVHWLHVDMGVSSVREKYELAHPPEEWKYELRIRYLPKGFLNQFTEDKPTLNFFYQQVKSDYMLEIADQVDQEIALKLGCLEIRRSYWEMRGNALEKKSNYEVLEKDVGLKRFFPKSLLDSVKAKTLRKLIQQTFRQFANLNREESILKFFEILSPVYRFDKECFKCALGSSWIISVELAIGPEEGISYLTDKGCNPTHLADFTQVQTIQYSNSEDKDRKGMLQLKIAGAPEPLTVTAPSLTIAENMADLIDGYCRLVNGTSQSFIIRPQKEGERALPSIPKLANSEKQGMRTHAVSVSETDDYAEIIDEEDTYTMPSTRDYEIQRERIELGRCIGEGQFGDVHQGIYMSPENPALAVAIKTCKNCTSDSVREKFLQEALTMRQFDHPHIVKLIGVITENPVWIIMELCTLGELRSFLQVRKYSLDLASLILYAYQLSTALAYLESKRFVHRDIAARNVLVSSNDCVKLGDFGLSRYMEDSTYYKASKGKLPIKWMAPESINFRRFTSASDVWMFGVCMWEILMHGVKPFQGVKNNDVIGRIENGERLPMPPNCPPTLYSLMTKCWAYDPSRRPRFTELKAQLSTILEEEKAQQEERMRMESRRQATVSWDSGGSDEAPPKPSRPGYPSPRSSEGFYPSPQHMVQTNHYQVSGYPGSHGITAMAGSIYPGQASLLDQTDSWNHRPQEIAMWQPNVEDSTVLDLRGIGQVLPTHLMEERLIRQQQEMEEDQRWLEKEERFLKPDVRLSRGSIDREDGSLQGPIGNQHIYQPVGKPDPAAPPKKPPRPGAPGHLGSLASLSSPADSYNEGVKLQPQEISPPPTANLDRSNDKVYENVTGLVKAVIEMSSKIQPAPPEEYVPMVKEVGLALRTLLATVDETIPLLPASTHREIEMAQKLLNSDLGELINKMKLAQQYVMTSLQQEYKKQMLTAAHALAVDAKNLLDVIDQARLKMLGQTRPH
UniProt P05556: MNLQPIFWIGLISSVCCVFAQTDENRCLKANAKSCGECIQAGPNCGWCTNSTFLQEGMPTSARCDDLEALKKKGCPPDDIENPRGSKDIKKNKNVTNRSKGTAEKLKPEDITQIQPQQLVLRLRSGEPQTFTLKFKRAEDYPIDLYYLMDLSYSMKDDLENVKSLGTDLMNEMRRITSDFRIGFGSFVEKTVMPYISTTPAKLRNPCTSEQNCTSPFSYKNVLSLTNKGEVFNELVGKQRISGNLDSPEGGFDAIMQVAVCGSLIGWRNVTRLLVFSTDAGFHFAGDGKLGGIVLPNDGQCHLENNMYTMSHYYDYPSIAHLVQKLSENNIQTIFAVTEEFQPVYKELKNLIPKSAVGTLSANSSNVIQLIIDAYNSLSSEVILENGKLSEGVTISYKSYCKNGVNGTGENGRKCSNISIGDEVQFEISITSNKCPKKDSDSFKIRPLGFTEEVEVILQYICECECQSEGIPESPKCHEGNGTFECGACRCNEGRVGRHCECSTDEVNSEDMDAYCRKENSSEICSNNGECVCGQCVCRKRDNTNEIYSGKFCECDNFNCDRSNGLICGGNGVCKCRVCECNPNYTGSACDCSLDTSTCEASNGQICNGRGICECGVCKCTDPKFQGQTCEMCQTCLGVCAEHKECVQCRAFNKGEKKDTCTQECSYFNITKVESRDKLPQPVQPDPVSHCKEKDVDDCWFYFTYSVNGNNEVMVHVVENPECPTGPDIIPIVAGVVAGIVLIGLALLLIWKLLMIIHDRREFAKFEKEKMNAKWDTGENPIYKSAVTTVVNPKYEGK

Results are given in words; binding and its absence hold for the method and conditions named. Binding seen in cells or lysates may run through a third protein. Some entries that bind do so weakly or less than the wild type.

As to “integrin β1 (from UniProt P05556 21-798) (receptor)”, the binding result is “binds”.

Values taken from PMC10964683.
